Publication doi:10.1101/2023.09.04.556214
Residue numbers refer to the chain shown, from its start. Numbers in names are those of the source. Where two headings read alike, the source gives them in different places. Results are given in words; binding and its absence hold for the method and conditions named. In cells and extracts the contact can be indirect. Some entries that bind do so weakly or less than the wild type. For some of these results: Sequences can lack the tags named with a protein. Blank lines part the entries; values can stand above or below the binder they belong to.

Legend:
[1] = target: PML5 CC^1-60 (N-terminal 60 amino acids), Myc- and YFP-tagged copies (Arabidopsis thaliana (Col-0)) (UniProt O64790); assay: co-IP
[2] = target: PML5 CC^1-60 (N-terminal 60 amino acids), Myc- and YFP-tagged copies (Arabidopsis thaliana (Col-0)) (UniProt O64790); assay: co-IP; remark: listed apart in the source
[3] = target: PML5 CC^1-60 split-YFP fusions (CC^1-60-cYFP^HA and CC^1-60-nYFP^MYC) (Arabidopsis thaliana (Col-0)) (UniProt O64790); assay: split reporter
[4] = target: PML5 (Potentially Membrane Localized 5) wild type, full length (Arabidopsis thaliana (Col-0)) (UniProt O64790); assay: co-IP
[5] = target: PML5 K74R (P-loop mutant), full length (Arabidopsis thaliana (Col-0)) (UniProt O64790); assay: co-IP
[6] = target: PML5 GCC(2,3,4)A (N-myristoylation and S-acylation site mutant), full length (Arabidopsis thaliana (Col-0)) (UniProt O64790); assay: co-IP
[7] = target: PML5 D362V (MHD mutant), full length (Arabidopsis thaliana (Col-0)) (UniProt O64790); assay: co-IP

B1: PML5 CC^1-60 (N-terminal 60 amino acids), Myc- and YFP-tagged copies (domain or fragment, UniProt O64790 1-60)
chain: MGCCFSVQFSFDDQTLVRIFNFLCGNINRNSFGVEERPTQPTIGQEEMLEKAWNRLMEDR
binding [1]: binds | binding [2]: binds

B2: PML5 CC^1-60 split-YFP fusions (CC^1-60-cYFP^HA and CC^1-60-nYFP^MYC) (domain or fragment, UniProt O64790 1-60)
chain: B1 chain
binding [3]: binds

B3: PML5 (Potentially Membrane Localized 5) wild type, full length (protein, UniProt O64790 1-762)
chain: MGCCFSVQFSFDDQTLVRIFNFLCGNINRNSFGVEERPTQPTIGQEEMLEKAWNRLMEDRVGIMGLHGMGGVGKTTLFKKIHNKFAKMSSRFDIVIWIVVSKGAKLSKLQEDIAEKLHLCDDLWKNKNESDKATDIHRVLKGKRFVLMLDDIWEKVDLEAIGVPYPSEVNKCKVAFTTRDQKVCGEMGDHKPMQVKCLEPEDAWELFKNKVGDNTLRSDPVIVELAREVAQKCRGLPLALSVIGETMASKTMVQEWEHAIDVLTRSAAEFSNMGNKILPILKYSYDSLGDEHIKSCFLYCALFPEDDEIYNEKLIDYWICEGFIGEDQVIKRARNKGYEMLGTLTLANLLTKVGTEHVVMHDVVREMALWIASDFGKQKENFVVRARVGLHERPEAKDWGAVRRMSLMDNHIEEITCESKCSELTTLFLQSNQLKNLSGEFIRYMQKLVVLDLSYNRDFNKLPEQISGLVSLQFLDLSNTSIKQLPVGLKKLKKLTFLNLAYTVRLCSISGISRLLSLRLLRLLGSKVHGDASVLKELQKLQNLQHLAITLSAELSLNQRLANLISILGIEGFLQKPFDLSFLASMENLSSLWVKNSYFSEIKCRESETASSYLRINPKIPCFTNLSRLGLSKCHSIKDLTWILFAPNLVYLYIEDSREVGEIINKEKATNLTSITPFLKLERLILYNLPKLESIYWSPLHFPRLLIIHVLDCPKLRKLPLNATSVPLVEEFQIRMYPPGLGNELEWEDEDTKNRFVLSIKK
binding [4]: binds

B6: PML5 D362V (MHD mutant), full length (protein, UniProt O64790 1-762)
chain: B3 chain with D362V
binding [7]: binds

Now from value to binder:

binding [5]: binds
B4: PML5 K74R (P-loop mutant), full length (protein, UniProt O64790 1-762)
chain: B3 chain with K74R

binding [6]: binds
B5: PML5 GCC(2,3,4)A (N-myristoylation and S-acylation site mutant), full length (protein, UniProt O64790 1-762)
chain: B3 chain with G2A, C3A, C4A
